Measurements reported in PubChem BioAssay AID504805 (Drosophila RNAi Screening Center, 2011).

Test: 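Knock-downs that cause poly(A) RNA to build up in the nucleus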 (primary screen)
System: Drosophila S2R+ cells
Knock-down reagent: long dsRNA against Drosophila genes, 0.25 µg dsRNA per well
Duration: 4 days
Detection: 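Poly(A) RNA detected by in situ hybridisation with a fluorescent oligo-dT probe, nuclei stained with a DNA dye; images judged by eye, phenotype noted per replicate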
This is not the whole library: the list holds selected reagents. 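Phenotypes are words from visual inspection of images, not measured scores.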 Names joined by + are all predicted targets of the reagent.

With knock-down of CG44085 [DRSC02922], the screen gave phenotype, replicate 1 = poly(A) RNA held back in the nucleus; phenotype, replicate 2 = poly(A) RNA held back in the nucleus.
Depletion of cpo + CG42457 (retired record) [DRSC15327] gave: phenotype, replicate 1 = poly(A) RNA held back in the nucleus.
After knock-down of Rexo5 (RNA exonuclease 5) [DRSC10981] the results were phenotype, replicate 1 = poly(A) RNA held back in the nucleus.
After knock-down of BTBD9 (BTB (POZ) domain containing 9) [DRSC22371], the record shows phenotype, replicate 1 = poly(A) RNA held back in the nucleus.
With knock-down of CG34452 [DRSC09387], the record shows phenotype, replicate 1 = poly(A) RNA held back in the nucleus.
RabGGTb (Rab geranylgeranyltransferase subunit beta) [DRSC00804] gave phenotype, replicate 1 = poly(A) RNA held back in the nucleus.
mRpS9 (mitochondrial ribosomal protein S9) [DRSC15456] scored phenotype, replicate 1 = poly(A) RNA held back in the nucleus.
After knock-down of Taf4 (TBP-associated factor 4) [DRSC11297], the record shows phenotype, replicate 1 = poly(A) RNA held back in the nucleus.
With knock-down of Srp54 (Splicing regulatory protein 54) [DRSC03442], the record shows phenotype, replicate 1 = poly(A) RNA held back in the nucleus.
CG34002 [DRSC11953] gave phenotype, replicate 1 = poly(A) RNA held back in the nucleus.
CycT (Cyclin T) [DRSC11124] gave phenotype, replicate 1 = poly(A) RNA held back in the nucleus.
Against CG5404 [DRSC15793], the entry reads phenotype, replicate 1 = poly(A) RNA held back in the nucleus.
After knock-down of CG6236 [DRSC15999] the results were phenotype, replicate 1 = poly(A) RNA held back in the nucleus.
CG34396 [DRSC04245] gave phenotype, replicate 1 = poly(A) RNA held back in the nucleus.
With knock-down of Brr2 (Brr2 U5 snRNP complex subunit) [DRSC10559], the screen gave phenotype, replicate 1 = poly(A) RNA held back in the nucleus; phenotype, replicate 2 = poly(A) RNA held back in the nucleus.
Silencing of Cse1 (Chromosome segregation 1) [DRSC03287] gave: phenotype, replicate 1 = poly(A) RNA held back in the nucleus; phenotype, replicate 2 = poly(A) RNA held back in the nucleus.
After knock-down of sbr (small bristles) [DRSC20368], the record shows phenotype, replicate 1 = poly(A) RNA held back in the nucleus; phenotype, replicate 2 = poly(A) RNA held back in the nucleus.
For alpha4GT2 (alpha1,4-galactosyltransferase 2) [DRSC15905] the deposit lists phenotype, replicate 1 = poly(A) RNA held back in the nucleus.
Polr2A (RNA polymerase II subunit A) [DRSC20280] showed phenotype, replicate 1 = poly(A) RNA held back in the nucleus.
After knock-down of grh (grainy head) [DRSC07625] the results were phenotype, replicate 1 = poly(A) RNA held back in the nucleus.
After knock-down of Mct1 (Monocarboxylate transporter 1) [DRSC18681], the record shows phenotype, replicate 1 = poly(A) RNA held back in the nucleus.
Depletion of RpS26 (Ribosomal protein S26) [DRSC03420] resulted in: phenotype, replicate 1 = poly(A) RNA held back in the nucleus; phenotype, replicate 2 = poly(A) RNA held back in the nucleus.
After knock-down of CG9706 [DRSC11095], the screen gave phenotype, replicate 1 = poly(A) RNA held back in the nucleus.
Silencing of Abcd1 (ATP binding cassette subfamily D member 1) [DRSC17157] resulted in: phenotype, replicate 1 = poly(A) RNA held back in the nucleus.
With knock-down of CG13516 [DRSC04159], the record shows phenotype, replicate 1 = poly(A) RNA held back in the nucleus.
Silencing of CG31436 [DRSC14661] came out at: phenotype, replicate 1 = poly(A) RNA held back in the nucleus.
Knock-down of eIF4G2 (eukaryotic translation initiation factor 4G2) [DRSC14207] resulted in: phenotype, replicate 1 = poly(A) RNA held back in the nucleus.
Against RpL7A (Ribosomal protein L7A) [DRSC18709] the deposit lists phenotype, replicate 1 = poly(A) RNA held back in the nucleus.
Against ASPP [DRSC04305], the values are phenotype, replicate 1 = poly(A) RNA held back in the nucleus; phenotype, replicate 2 = poly(A) RNA held back in the nucleus.
Silencing of Tk (Tachykinin) [DRSC21972] came out at: phenotype, replicate 1 = poly(A) RNA held back in the nucleus.
Knock-down of Naa30A (N(alpha)-acetyltransferase 30 A) [DRSC18583] gave: phenotype, replicate 1 = poly(A) RNA held back in the nucleus.
ClpX (Caseinolytic protease chaperone subunit) [DRSC15592] scored phenotype, replicate 1 = poly(A) RNA held back in the nucleus.
Against Mob2 [DRSC09119] the deposit lists phenotype, replicate 1 = poly(A) RNA held back in the nucleus.
Lim3 [DRSC22650] scored phenotype, replicate 1 = poly(A) RNA held back in the nucleus.

Quoted from the listing (4 entries):
Abcd1 (ATP binding cassette subfamily D member 1) [DRSC17157]: phenotype, replicate 1 = poly(A) RNA held back in the nucleus
CG13516 [DRSC04159]: phenotype, replicate 1 = poly(A) RNA held back in the nucleus
CG31436 [DRSC14661]: phenotype, replicate 1 = poly(A) RNA held back in the nucleus
eIF4G2 (eukaryotic translation initiation factor 4G2) [DRSC14207]: phenotype, replicate 1 = poly(A) RNA held back in the nucleus

The listing continues:
For cbt (cabut) [DRSC00655], the entry reads phenotype, replicate 1 = poly(A) RNA held back in the nucleus.
After knock-down of pygo (pygopus) [DRSC14322], the record shows phenotype, replicate 1 = poly(A) RNA held back in the nucleus.
For RpL12 (Ribosomal protein L12) [DRSC04344] the deposit lists phenotype, replicate 1 = poly(A) RNA held back in the nucleus.
CG12237 [DRSC19449] gave phenotype, replicate 1 = poly(A) RNA held back in the nucleus.
Against E5 [DRSC16585], the entry reads phenotype, replicate 1 = poly(A) RNA held back in the nucleus.
Silencing of pcx (pecanex) [DRSC18188] resulted in: phenotype, replicate 1 = poly(A) RNA held back in the nucleus.
With knock-down of pcx (pecanex) [DRSC18190] the results were phenotype, replicate 1 = poly(A) RNA held back in the nucleus.
Depletion of Nepl16 (Neprilysin-like 16) [DRSC14650] came out at: phenotype, replicate 1 = poly(A) RNA held back in the nucleus.
After knock-down of CG6686 [DRSC02979], the record shows phenotype, replicate 1 = poly(A) RNA held back in the nucleus.
Depletion of sona (sol narae) [DRSC04574] gave: phenotype, replicate 1 = poly(A) RNA held back in the nucleus; phenotype, replicate 2 = poly(A) RNA held back in the nucleus.
Roc1a (Regulator of cullins 1a) [DRSC18483] scored phenotype, replicate 1 = poly(A) RNA held back in the nucleus.
Against CG42361 [DRSC04391] the deposit lists phenotype, replicate 1 = poly(A) RNA held back in the nucleus.
For RpS3A (Ribosomal protein S3A) [DRSC17168], the entry reads phenotype, replicate 1 = poly(A) RNA held back in the nucleus; phenotype, replicate 2 = poly(A) RNA held back in the nucleus.
With knock-down of CG12934 [DRSC06247] the results were phenotype, replicate 1 = poly(A) RNA held back in the nucleus.
Usp30 (Ubiquitin specific protease 30) [DRSC18265] scored phenotype, replicate 1 = poly(A) RNA held back in the nucleus.
Against Rrp6 [DRSC16223] the deposit lists phenotype, replicate 1 = poly(A) RNA held back in the nucleus; phenotype, replicate 2 = poly(A) RNA held back in the nucleus.
Against mtd (mustard) [DRSC12381], the values are phenotype, replicate 1 = poly(A) RNA held back in the nucleus.
For Usp15-31 (Ubiquitin specific protease 15/31) [DRSC04532], the values are phenotype, replicate 1 = poly(A) RNA held back in the nucleus.
Depletion of Nup154 (Nucleoporin 154kD) [DRSC03384] came out at: phenotype, replicate 1 = poly(A) RNA held back in the nucleus.
With knock-down of b6 [DRSC18740] the results were phenotype, replicate 1 = poly(A) RNA held back in the nucleus.
Silencing of Vps24 (Vacuolar protein sorting 24) [DRSC12332] resulted in: phenotype, replicate 1 = poly(A) RNA held back in the nucleus.
With knock-down of CG15740 [DRSC19706], the record shows phenotype, replicate 1 = poly(A) RNA held back in the nucleus.
After knock-down of Ddx56 (DEAD-box helicase 56) [DRSC20567], the screen gave phenotype, replicate 1 = poly(A) RNA held back in the nucleus.
Knock-down of CG1409 [DRSC17910] resulted in: phenotype, replicate 1 = poly(A) RNA held back in the nucleus.
Nt5b (5' nucleotidase B) [DRSC19977] gave phenotype, replicate 1 = poly(A) RNA held back in the nucleus.
